# Counter-ions that a name gives are not always drawn. The list shows a part of the results. The numbers are fractions of the control, whatever unit the source prints. Most values lie at the level of the controls, where differences are scatter.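 MIN6, a mouse insulinoma beta-cell line, stably carries a lentiviral reporter where Pdx1 and Ins1 promoters each drive a nuclear fluorescent protein; Hoechst staining and automated imaging counted cells. Drugs were candidate hits if Ins1 promoter readout exceeded two median absolute deviations from DMSO controls while Pdx1 activity stayed near normal.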
# Tested on: MIN6
# Assay: % Pdx1+ Ins1-low (RFP-only, immature) cells relative to DMSO control (fold of DMSO control); higher = more immature Pdx1+/Ins1-low cells
# Settings: 8.5 µM; 48 h; glucose 5 mM
row,Compound,% Pdx1+ Ins1-low
1,C=CCOC(Cn1ccnc1)c1ccc(Cl)cc1Cl (configuration not stated) [Enilconazole],0.995
2,CC1(C)[C@@H](OC(=O)CCC(=O)O)CC[C@]2(C)[C@H]3C(=O)C=C4[C@@H]5C[C@@](C)(C(=O)O)CC[C@]5(C)CC[C@@]4(C)[C@]3(C)CC[C@@H]12 [Carbenoxolone disodium salt],0.708
3,CC(CN(C)C)CN1c2ccccc2Sc2ccccc21 (configuration not stated) [Trimeprazine tartrate],0.71
4,C#C[C@]1(O)CC[C@H]2[C@@H]3CCC4=CC(=O)CC[C@@H]4[C@H]3CC[C@@]21CC [Norgestrel-(-)-D],1.2
5,N=C(N)NCCN1CCCCCCC1 [Guanethidine sulfate],0.778
6,CCCOc1ccc(C(=O)OCCN(CC)CC)cc1N [Proparacaine hydrochloride],1.99
7,CC(=O)OCC(=O)[C@@]1(OC(C)=O)[C@@H](C)C[C@H]2[C@@H]3C[C@H](F)C4=CC(=O)C=C[C@]4(C)[C@@]3(F)[C@@H](O)C[C@@]21C [Diflorasone Diacetate],1.49
8,CC[C@@H](CO)NCCN[C@@H](CC)CO [Ethambutol dihydrochloride],1.02
9,Cc1cc(N)c2ccccc2[n+]1CCCCCCCCCC[n+]1c(C)cc(N)c2ccccc21 [Dequalinium dichloride],1.5
10,COc1ccccc1OCC(O)COC(N)=O (configuration not stated) [Methocarbamol],1.06
11,CCOC(=O)[C@@](C)(N)Cc1ccc(O)c(O)c1 [Methyldopate hydrochloride],1.32
12,O=C(c1ccccc1)c1ccc2n1CCC2C(=O)O (configuration not stated) [Ketorolac tromethamine],0.918
13,"c1ccc(CNc2ncnc3nc[nH]c23)cc1 [Aminopurine, 6-benzyl]",1.19
14,CCN[C@@H]1C[C@H](N)[C@@H](O[C@H]2OC(CN)=CC[C@H]2N)[C@H](O)[C@H]1O[C@H]1OC[C@](C)(O)[C@H](NC)[C@H]1O [Netilmicin sulfate],0.656
15,CN1Cc2c(N)cccc2C(c2ccccc2)C1 (configuration not stated) [Nomifensine maleate],0.701
16,Cc1c(N)c(=O)n(-c2ccccc2)n1C [Ampyrone],0.835
17,C=CCOc1ccccc1OCC(O)CNC(C)C (configuration not stated) [Oxprenolol hydrochloride],0.761
18,NC[C@H]1O[C@H](O[C@H]2[C@H](O)[C@@H](O[C@H]3O[C@H](CO)[C@@H](O)[C@H](N)[C@H]3O)[C@H](N)C[C@@H]2N)[C@H](N)C[C@@H]1O [Tobramycin],1.3
19,O=c1c(O)c(-c2ccc(O)cc2)oc2cc(O)cc(O)c12 [Kaempferol],1.84
20,COc1cc2nc(N3CCN(C(=O)C4COc5ccccc5O4)CC3)nc(N)c2cc1OC (configuration not stated) [Doxazosin mesylate],1.21
21,CCCCC1C(=O)N(c2ccccc2)N(c2ccc(O)cc2)C1=O (configuration not stated) [Oxyphenbutazone],0.683
22,N[C@H]1CONC1=O [(S)-(-)-Cycloserine],0.435
23,CCN(CC)CCOCCOC(=O)C1(c2ccccc2)CCCC1 [Carbetapentane citrate],0.839
24,CC(C)(CO)[C@@H](O)C(=O)NCCC(=O)O [Pantothenic acid calcium salt monohydrate],0.92
25,CCN(CCCCOC(=O)c1ccc(OC)c(OC)c1)C(C)Cc1ccc(OC)cc1 (configuration not stated) [Mebeverine hydrochloride],1.01
26,Cc1cc(C(C)(C)C)cc(C)c1CC1=NCCN1 [Xylometazoline hydrochloride],1.18

row,Compound,% Pdx1+ Ins1-low
1,CC#C[C@]1(O)CC[C@H]2[C@@H]3CCC4=CC(=O)CCC4=C3[C@@H](c3ccc(N(C)C)cc3)C[C@@]21C [Mifepristone],1.09
2,COc1ccc(Cl)cc1C(=O)NCCc1ccc(S(=O)(=O)NC(=O)NC2CCCCC2)cc1 [Glibenclamide],0.984
3,CCCOc1ccccc1-c1nc2[nH]nnc2c(=O)[nH]1 [Zaprinast],0.776
4,COc1cc(NS(=O)(=O)c2ccc(N)cc2)ncn1 [Sulfamonomethoxine],0.919
5,Cc1cc(C)nc(NS(=O)(=O)c2ccc(N)cc2)n1 [Sulfamethazine sodium salt],1.08
6,CN(C(=O)CN(CCO)CC(=O)N(C)C(C)(C)Cc1ccccc1)C(C)(C)Cc1ccccc1 [Oxethazaine],1
7,CC(C(O)c1ccc(O)cc1)N1CCC(Cc2ccccc2)CC1 (configuration not stated) [Ifenprodil tartrate],0.898
8,C[C@@H]1C/C=C/C=C/C=C/C=C/[C@H](O[C@@H]2O[C@H](C)[C@@H](O)[C@H](N)[C@@H]2O)C[C@@H]2O[C@](O)(C[C@@H](O)C[C@H]3O[C@@H]3/C=C/C(=O)O1)C[C@H](O)[C@H]2C(=O)O [Natamycin],1.5
9,CO/N=C(\C(=O)N[C@@H]1C(=O)N2C(C(=O)O)=C(COC(C)=O)CS[C@H]12)c1csc(N)n1 [Cefotaxime sodium salt],1.11
10,COc1cc(CNC(=O)CCCC/C=C/C(C)C)ccc1O [Capsaicin],0.57
11,O=C(O)[C@@H]1[C@H]2C[C@H]3c4[nH]c5ccccc5c4CCN3C[C@@H]2CC[C@@H]1O [Yohimbinic acid monohydrate],1.26
12,CC(=O)Nc1nnc(S(N)(=O)=O)s1 [Acetazolamide],0.746
13,Cc1cc2cc3c(C)cc(=O)oc3c(C)c2o1 [Trioxsalen],0.84
14,CCCCOc1cc(C(=O)OCCN(CC)CC)ccc1N [Benoxinate hydrochloride],1.36
15,CC(=O)c1cc2ccccc2oc1=O [3-Acetylcoumarin],0.699
16,CCN(CC)CCNC(=O)c1ccc(N)cc1 [Procainamide hydrochloride],1.69
17,CC(=O)Nc1c(I)c(C(=O)N[C@H]2C(O)O[C@H](CO)[C@@H](O)[C@@H]2O)c(I)c(N(C)C(C)=O)c1I (some centres not stated) [Metrizamide],0.857
18,CCOC1O[C@H]([C@@H](COCc2ccccc2)OCc2ccccc2)[C@H](OCc2ccccc2)[C@H]1O (some centres not stated) [Tribenoside],1.17
19,CC(C)[N+]1(C)[C@@H]2CC[C@H]1C[C@@H](OC(=O)C(CO)c1ccccc1)C2 (some centres not stated) [Ipratropium bromide],1.08
20,Nc1ccc(S(=O)(=O)Nc2nccs2)cc1 [Sulfathiazole],0.978
21,CC(CNC1CCCCC1)OC(=O)c1ccccc1 (configuration not stated) [Hexylcaine hydrochloride],1.06
22,CN[C@H]1CC[C@@H](c2ccc(Cl)c(Cl)c2)c2ccccc21 [Sertraline],0.764
23,C[C@@H]1CCC[C@H](C)N1NC(=O)c1ccc(Cl)c(S(N)(=O)=O)c1 [Clopamide],0.538
24,NC(Cn1ccc(=O)c(O)c1)C(=O)O (configuration not stated) [Mimosine],0.899
25,COC(=O)Nc1nc2cc(Sc3ccccc3)ccc2[nH]1 [Fenbendazole],1.56
26,CC(=O)N(CC(O)CO)c1c(I)c(C(=O)NCC(O)CO)c(I)c(C(=O)NCC(O)CO)c1I (configuration not stated) [Iohexol],0.892

row,Compound,% Pdx1+ Ins1-low
1,CN(CCCCCCCCCCN(C)C(=O)Oc1cccc([N+](C)(C)C)c1)C(=O)Oc1cccc([N+](C)(C)C)c1 [Demecarium bromide],0.808
2,CN1CCN(CC(=O)N2c3ccccc3C(=O)Nc3cccnc32)CC1 [Pirenzepine dihydrochloride],0.929
3,Nc1ncnc2c1ncn2[C@@H]1O[C@H](CO)[C@@H](O)[C@@H]1O [Vidarabine],0.771
4,CN(C)CCC(c1ccc(Br)cc1)c1ccccn1 (configuration not stated) [Brompheniramine maleate],0.656
5,CCC1(c2ccccc2)C(=O)NCNC1=O [Primidone],0.636
6,CCN(CC)C(=O)c1ccc(O)c(OC)c1 [Ethamivan],1.1
7,O=C(c1ccc(F)cc1)C1CCN(CCn2c(=O)[nH]c3ccccc3c2=O)CC1 [Ketanserin tartrate hydrate],0.975
8,C[C@H]1[C@H](C)CC[C@]2(C(=O)O)CC[C@]3(C)C(=CC[C@@H]4[C@@]5(C)CC[C@H](O)C(C)(C)[C@@H]5CC[C@]43C)[C@H]12 [Ursolic acid],0.872
9,O=C1NCC2(CCN(CCc3ccccc3)CC2)O1 [Fenspiride hydrochloride],1.05
10,CN(C)CCOC(c1ccccc1)c1ccccc1.Cn1c(=O)c2[nH]c(Cl)nc2n(C)c1=O [Dimenhydrinate],1.15
11,Cc1cc2nc3c(=O)[nH]c(=O)nc-3n(C[C@H](O)[C@H](O)[C@H](O)CO)c2cc1C [Riboflavine],1.12
12,Clc1cccc(Cl)c1NC1=NCCN1 [Clonidine hydrochloride],1.06
13,N=C(N)NCCCCNC(=N)N [Arcaine sulfate],0.612
14,CCCNC(=O)NS(=O)(=O)c1ccc(Cl)cc1 [Chlorpropamide],0.975
15,CCN(CC)C(C)CN1c2ccccc2Sc2ccccc21 (configuration not stated) [Ethopropazine hydrochloride],0.745
16,CNCCc1ccccn1 [Betahistine mesylate],0.872
17,CC=CC(=O)N(CC)c1ccccc1C [Crotamiton],1.1
18,CN(C)C(=N)NC(=N)N [Metformin hydrochloride],0.991
19,NCCCCCC(=O)O [Aminocaproic acid],0.937
20,Nc1nc2c(ncn2COC(CO)CO)c(=O)[nH]1 [Ganciclovir],0.439
21,O=C1O[C@H]([C@@H](O)CO)C(O)=C1O [Ascorbic acid],1.04
22,O=C(O)c1ccccc1Nc1cccc(C(F)(F)F)c1 [Flufenamic acid],1.24
23,OCCN1CCN(CC/C=C2/c3ccccc3Sc3ccc(Cl)cc32)CC1 [Zuclopenthixol hydrochloride],0.913
24,C[N+]1(C)CCCC1C(=O)O (configuration not stated) [Stachydrine hydrochloride],0.945
25,CCC(=O)O[C@]1(C(=O)SCF)[C@H](C)C[C@H]2[C@@H]3C[C@H](F)C4=CC(=O)C=C[C@]4(C)[C@@]3(F)[C@@H](O)C[C@@]21C [Fluticasone propionate],1.28

# 6 entries out of the list, ordered by length of the SMILES, high to low:
row,Compound,% Pdx1+ Ins1-low
18,CCOC1O[C@H]([C@@H](COCc2ccccc2)OCc2ccccc2)[C@H](OCc2ccccc2)[C@H]1O (some centres not stated) [Tribenoside],1.17
11,Cc1cc2nc3c(=O)[nH]c(=O)nc-3n(C[C@H](O)[C@H](O)[C@H](O)CO)c2cc1C [Riboflavine],1.12
2,COc1ccc(Cl)cc1C(=O)NCCc1ccc(S(=O)(=O)NC(=O)NC2CCCCC2)cc1 [Glibenclamide],0.984
20,COc1cc2nc(N3CCN(C(=O)C4COc5ccccc5O4)CC3)nc(N)c2cc1OC (configuration not stated) [Doxazosin mesylate],1.21
20,Nc1ccc(S(=O)(=O)Nc2nccs2)cc1 [Sulfathiazole],0.978
16,CNCCc1ccccn1 [Betahistine mesylate],0.872
